Test results from PMC5008010.
These are yes or no findings as the source states them, for the method shown. In cells and extracts the contact can be indirect. Here binding means that the protein was enriched with, or labelled near, the bait; the list need not be complete. Tags and fused reporters may be left off the sequences shown.

Sequences of proteins named here, by UniProt entry; tags and fusion partners are left off. Residues count along the entry.
UniProt P20700: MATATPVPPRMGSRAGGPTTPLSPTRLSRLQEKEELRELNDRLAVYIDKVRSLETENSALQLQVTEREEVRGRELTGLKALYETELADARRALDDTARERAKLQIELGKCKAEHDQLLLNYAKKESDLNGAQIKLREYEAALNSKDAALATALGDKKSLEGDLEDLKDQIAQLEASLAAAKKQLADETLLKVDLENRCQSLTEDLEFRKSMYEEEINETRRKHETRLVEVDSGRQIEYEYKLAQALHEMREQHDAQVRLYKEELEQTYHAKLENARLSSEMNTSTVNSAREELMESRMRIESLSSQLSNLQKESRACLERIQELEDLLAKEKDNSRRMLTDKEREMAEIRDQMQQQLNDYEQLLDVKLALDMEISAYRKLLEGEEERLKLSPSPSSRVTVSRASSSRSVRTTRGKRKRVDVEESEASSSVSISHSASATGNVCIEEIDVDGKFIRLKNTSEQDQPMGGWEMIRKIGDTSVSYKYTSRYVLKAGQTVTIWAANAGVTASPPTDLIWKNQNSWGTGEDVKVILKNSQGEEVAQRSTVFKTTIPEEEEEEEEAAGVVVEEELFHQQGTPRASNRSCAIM
UniProt P02545, residues 1-646: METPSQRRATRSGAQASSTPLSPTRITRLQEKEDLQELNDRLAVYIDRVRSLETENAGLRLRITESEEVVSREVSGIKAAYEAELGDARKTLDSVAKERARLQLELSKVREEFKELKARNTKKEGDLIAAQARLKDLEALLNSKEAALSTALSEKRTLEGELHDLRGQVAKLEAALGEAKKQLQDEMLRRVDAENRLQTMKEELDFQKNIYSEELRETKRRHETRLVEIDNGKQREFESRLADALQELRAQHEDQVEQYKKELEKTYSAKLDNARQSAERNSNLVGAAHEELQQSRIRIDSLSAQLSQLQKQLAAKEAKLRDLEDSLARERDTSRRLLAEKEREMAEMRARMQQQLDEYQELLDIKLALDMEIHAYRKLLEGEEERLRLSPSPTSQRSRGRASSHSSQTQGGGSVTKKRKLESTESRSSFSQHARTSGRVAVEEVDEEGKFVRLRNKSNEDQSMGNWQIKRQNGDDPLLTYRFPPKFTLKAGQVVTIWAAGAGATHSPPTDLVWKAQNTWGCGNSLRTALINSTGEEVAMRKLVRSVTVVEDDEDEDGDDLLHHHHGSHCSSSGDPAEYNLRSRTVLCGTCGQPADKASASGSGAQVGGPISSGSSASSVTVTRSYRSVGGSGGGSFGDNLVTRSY

T1: AKTIP-FLAG fusion protein (UniProt Q9H8T0)
T1 sequence: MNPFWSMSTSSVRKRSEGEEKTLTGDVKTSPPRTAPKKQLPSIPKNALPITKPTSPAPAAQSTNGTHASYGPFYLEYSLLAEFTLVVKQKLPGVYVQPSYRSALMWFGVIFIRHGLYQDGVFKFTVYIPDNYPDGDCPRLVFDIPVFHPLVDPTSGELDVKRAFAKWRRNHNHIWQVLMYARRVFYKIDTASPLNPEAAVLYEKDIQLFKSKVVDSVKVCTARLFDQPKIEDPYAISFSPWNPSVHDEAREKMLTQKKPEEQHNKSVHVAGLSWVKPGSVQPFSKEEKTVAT

B1: lamin B2 (protein, UniProt Q03252 1-620)
chain: MSPPSPGRRREQRRPRAAATMATPLPGRAGGPATPLSPTRLSRLQEKEELRELNDRLAHYIDRVRALELENDRLLLKISEKEEVTTREVSGIKALYESELADARRVLDETARERARLQIEIGKLRAELDEVNKSAKKREGELTVAQGRVKDLESLFHRSEVELAAALSDKRGLESDVAELRAQLAKAEDGHAVAKKQLEKETLMRVDLENRCQSLQEELDFRKSVFEEEVRETRRRHERRLVEVDSSRQQEYDFKMAQALEELRSQHDEQVRLYKLELEQTYQAKLDSAKLSSDQNDKAASAAREELKEARMRLESLSYQLSGLQKQASAAEDRIRELEEAMAGERDKFRKMLDAKEQEMTEMRDVMQQQLAEYQELLDVKLALDMEINAYRKLLEGEEERLKLSPSPSSRVTVSRATSSSSGSLSATGRLGRSKRKRLEVEEPLGSGPSVLGTGTGGSGGFHLAQQASASGSVSIEEIDLEGKFVQLKNNSDKDQSLGNWRIKRQVLEGEEIAYKFTPKYILRAGQMVTVWAAGAGVAHSPPSTLVWKGQSSWGTGESFRTVLVNADGEEVAMRTVKKSSVMRENENGEEEEEEAEFGEEDLFHQQGDPRTTSRGCYVM
B2: matrin 3 (protein, UniProt P43243 1-847)
chain: MSKSFQQSSLSRDSQGHGRDLSAAGIGLLAAATQSLSMPASLGRMNQGTARLASLMNLGMSSSLNQQGAHSALSSASTSSHNLQSIFNIGSRGPLPLSSQHRGDADQASNILASFGLSARDLDELSRYPEDKITPENLPQILLQLKRRRTEEGPTLSYGRDGRSATREPPYRVPRDDWEEKRHFRRDSFDDRGPSLNPVLDYDHGSRSQESGYYDRMDYEDDRLRDGERCRDDSFFGETSHNYHKFDSEYERMGRGPGPLQERSLFEKKRGAPPSSNIEDFHGLLPKGYPHLCSICDLPVHSNKEWSQHINGASHSRRCQLLLEIYPEWNPDNDTGHTMGDPFMLQQSTNPAPGILGPPPPSFHLGGPAVGPRGNLGAGNGNLQGPRHMQKGRVETSRVVHIMDFQRGKNLRYQLLQLVEPFGVISNHLILNKINEAFIEMATTEDAQAAVDYYTTTPALVFGKPVRVHLSQKYKRIKKPEGKPDQKFDQKQELGRVIHLSNLPHSGYSDSAVLKLAEPYGKIKNYILMRMKSQAFIEMETREDAMAMVDHCLKKALWFQGRCVKVDLSEKYKKLVLRIPNRGIDLLKKDKSRKRSYSPDGKESPSDKKSKTDGSQKTESSTEGKEQEEKSGEDGEKDTKDDQTEQEPNMLLESEDELLVDEEEAAALLESGSSVGDETDLANLGDVASDGKKEPSDKAVKKDGSASAAAKKKLKKVDKIEELDQENEAALENGIKNEENTEPGAESSENADDPNKDTSENADGQSDENKDDYTIPDEYRIGPYQPNVPVGIDYVIPKTGFYCKLCSLFYTNEEVAKNTHCSSLPHYQKLKKFLNKLAEERRQKKET

Target: T1, AKTIP-FLAG fusion protein
Assay: affinity purification with mass spectrometry; anti-FLAG M2 antibody on G-sepharose beads, 2 mg whole-cell extract of 293T cells transfected with AKTIP-FLAG (72 h); lysis buffer 20 mM Hepes pH 7.5, 150 mM NaCl, 5 mM MgCl2, 0.5 mM EGTA, 0.25% NP-40; mouse IgG as control; LC-MS/MS of gel slices; three independent experiments

binding | Molecule
binds | lamin B1 (from UniProt P20700 1-586)
binds | lamin A/C (from UniProt P02545 1-646)
binds | B1
binds | B2
